Experimental data taken from paper PMC6273799, “The Interference of Selected Cytotoxic Alkaloids with the Cytoskeleton: An Insight into Their Modes of Action” (Molecules, 2016).

Test system: MCF-7 cells
Test: MTT cytotoxicity assay, MCF-7
Type: cell-based
Conditions: Homo sapiens, MCF7, 72 h, read-out: IC50 MCF-7
Description: The anti-proliferative effects of alkaloids were assessed using the MTT assay, as previously described. In brief, 1 × 10^4 cells were seeded in 96-well-plates and incubated with serial dilutions of alkaloids for 48 h (Hela, U2OS) and 72 h (MCF-7). MTT solution was then added and incubated for 2 h. After the addition of DMSO, the plate was read at 570 nm using the Tecan infinite M200 Pro (Tecan, Crailsheim, Germany).
The IC50 was determined as the amount of the substances needed to reduce 50% cell viability/tubulin polymerization and calculated from concentration-response curves by Sigmaplot software (Systat Software Inc., San Jose, CA, USA). All experiments were performed at least three times. Data are presented as the mean ± standard deviation. Statistical comparison between controls and different treatments were performed by an unpaired Student’s t-test. Significance was considered at p < 0.05.

Q: With `COc1cc2c(c(OC)c1OC)-c1ccc(OC)c(=O)cc1[C@@H](NC(C)=O)CC2` [Colchicine, colchicine] as the compound, how does the IC50 read?
A: Its IC50 is 20 ± 10 nM.
